Protein sequences, listed by entry. Tags and fused reporters are not part of them. Residues count along the entry.
UniProt O22456, 1-90: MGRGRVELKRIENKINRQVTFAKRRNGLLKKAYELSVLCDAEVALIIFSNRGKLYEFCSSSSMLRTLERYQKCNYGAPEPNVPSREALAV

In PMC7892521:

Target: SEP3MI (SEPALLATA3 MADS- and I-domain) (UniProt O22456)
Assay: EMSA
Conditions: EMSA: 0.1 uM protein dimer, 0.2 uM DNA, 20 ul, 2 h at 22 C, buffer as in Käppel et al. 2018 (not given); 5% native PAGE, 0.5x TBE, 2.5% glycerol, ethidium bromide; recombinant protein

“ATCTACACTCTTTCCCTACACGACGCTCTTCCGATCTTTATATTCCAAATAAGGAAAGTATGCATGGATCGGAAGAGCACACGTCTGAACTCCAGTCAC (double strand) [EMSA_probe_positive (AG intron 2 CArG box 1)]”: binds.

For at least one entry, the source does not settle the construct or the ends of the probe. At least one verdict rests on a figure or table, not on a statement of the authors.
